According to patent EP0324130A2 (RORER INTERNATIONAL (OVERSEAS) INC. (a Delaware corporation), priority 1987, dated 1989):

Assay: general procedure: Boc solid-phase peptide synthesis; BHA resin, amine titer 0.61 meq/g
Details: whole synthesis, relative area percent, scale of the general procedure 5 g resin, HCl salt

Question: Which “final HPLC purity” value does the source give for Gly^8, Ala^16, des-Leu^19-SCT here?
Answer: greater than 95%
